In the test the target is T1, FAT10, endogenous in neonatal rat cardiac fibroblasts (rat (endogenous in NRCFs)) (UniProt Q921A3).
T1 sequence: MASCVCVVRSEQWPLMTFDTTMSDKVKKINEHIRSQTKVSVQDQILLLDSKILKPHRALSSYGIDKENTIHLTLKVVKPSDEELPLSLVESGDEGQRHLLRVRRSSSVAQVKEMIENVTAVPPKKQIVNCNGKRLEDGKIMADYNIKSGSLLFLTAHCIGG
Nature of the test: co-IP; endogenous proteins in NRCFs.

Chains of the proteins cited; added tags and fusions are not shown.
UniProt P84025: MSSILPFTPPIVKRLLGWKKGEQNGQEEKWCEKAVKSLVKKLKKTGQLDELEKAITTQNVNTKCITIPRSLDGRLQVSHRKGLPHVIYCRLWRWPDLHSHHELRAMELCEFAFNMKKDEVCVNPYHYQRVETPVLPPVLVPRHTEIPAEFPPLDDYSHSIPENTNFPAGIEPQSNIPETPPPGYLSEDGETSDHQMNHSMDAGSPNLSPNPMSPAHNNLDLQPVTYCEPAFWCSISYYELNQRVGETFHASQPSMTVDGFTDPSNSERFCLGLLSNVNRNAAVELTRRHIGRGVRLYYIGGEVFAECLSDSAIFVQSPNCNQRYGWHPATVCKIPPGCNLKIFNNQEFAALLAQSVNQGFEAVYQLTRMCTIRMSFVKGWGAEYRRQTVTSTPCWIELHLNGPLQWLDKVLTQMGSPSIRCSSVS

Results are given in words; binding and its absence hold for the method and conditions named. Binding seen in cells or lysates may run through a third protein. Some results given as binding are weak or reduced against the parent protein; the word gives no strength.

Take “Smad3, endogenous in neonatal rat cardiac fibroblasts (from UniProt P84025 1-425)”: the binding result was “binds”.

The record behind these values is article PMC9910007.
